From PMC3954793, “SHP-2 Binds to Caveolin-1 and Regulates Src Activity via Competitive Inhibition of CSK in Response to H2O2 in Astrocytes” (PLoS ONE, 2014) come the findings set out here.

By UniProt entry, the sequences of proteins in these tests, tags left out. Where a name states a change or a piece, a line headed by the entry shows the natural chain unless it says otherwise.
UniProt Q03135: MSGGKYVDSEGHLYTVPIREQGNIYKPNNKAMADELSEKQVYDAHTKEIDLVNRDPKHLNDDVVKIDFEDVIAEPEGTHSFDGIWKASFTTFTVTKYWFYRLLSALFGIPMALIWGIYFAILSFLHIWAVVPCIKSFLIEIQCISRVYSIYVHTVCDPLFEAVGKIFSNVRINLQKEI
UniProt P41240: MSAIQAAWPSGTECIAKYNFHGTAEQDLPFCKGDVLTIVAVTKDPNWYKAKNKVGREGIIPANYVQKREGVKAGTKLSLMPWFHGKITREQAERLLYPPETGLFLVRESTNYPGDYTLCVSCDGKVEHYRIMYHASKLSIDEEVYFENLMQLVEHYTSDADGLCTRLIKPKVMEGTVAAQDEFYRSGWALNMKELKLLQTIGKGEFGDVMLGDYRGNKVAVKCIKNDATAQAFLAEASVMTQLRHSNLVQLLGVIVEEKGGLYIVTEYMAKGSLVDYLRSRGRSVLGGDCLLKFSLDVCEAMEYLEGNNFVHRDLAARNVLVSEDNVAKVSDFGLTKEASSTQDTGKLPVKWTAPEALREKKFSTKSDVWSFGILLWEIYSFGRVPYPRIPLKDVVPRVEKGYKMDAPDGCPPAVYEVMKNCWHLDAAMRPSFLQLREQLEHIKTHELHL

No constants are given. Whether binding was seen depends on the method and setting. For part of these data: In cells and extracts the contact can be indirect. Some results given as binding are weak or reduced against the parent protein; the word gives no strength.

For test [1], the target named is phosphorylation-deficient caveolin-1 mutant (Y14A) (human) (UniProt Q03135). Put plainly: co-IP; HEK 293T cells transfected with caveolin-1 WT or Y14A, 5 mM H2O2 for 10 min; 700 µg lysate in RIPA buffer; immunoprecipitation with anti-CSK, anti-SHP-2 or anti-caveolin-1, immunoblot. In general terms: A western blot detects proteins with antibodies after separation by electrophoresis.

In test [2] the target is T1, caveolin-1 phosphopeptide Cav-1 pY 14 (human).
T1 sequence (peptide, phosphotyrosine at position 4 of the peptide (Tyr 14 of caveolin-1)): GHLYTVPIREQGN
The test can be described thus: SPR; reverse orientation: Cav-1 pY 14 immobilised on the chip (via covalently bound streptavidin), rGST-SHP-2 or rGST-CSK injected; both purified. (In general: SPR reads the build-up and loss of mass on a sensor chip optically.)

In test [3] the target is caveolin-1 peptide, residues 9–21 (spot 2 of the caveolin-1 (1–85) PepSPOT array) (human) (UniProt Q03135). The test can be described thus: peptide or protein array; PepSPOTs membrane with 13-mer peptides of caveolin-1 (1–85) overlapping by 5 residues, Tyr 6, 14, 25 and 42 phosphorylated; incubated overnight with 1 µg rGST-SHP-2 or rGST-CSK, detected by immunoblotting; both purified.

For “c-Src tyrosine kinase (CSK) (from UniProt P41240 1-450) (enzyme)”, in test [1], the binding entry is “no binding”.
Turning to “recombinant glutathione S-transferase (GST)-CSK (from UniProt P41240 1-450) (enzyme)”, the binding entry in test [2] and in test [3] was “binds” in each case.
